From paper PMC7026009
These are yes or no findings as the source states them, for the method shown. In cells and extracts the contact can be indirect. Some entries that bind do so weakly or less than the wild type. For some assays here: Where a sequence is shown, tags or fusion partners need not be part of it.

Sequences of proteins named here, by UniProt entry; tags and fusion partners are left off. Residues count along the entry.
UniProt P05622, residues 32-1098: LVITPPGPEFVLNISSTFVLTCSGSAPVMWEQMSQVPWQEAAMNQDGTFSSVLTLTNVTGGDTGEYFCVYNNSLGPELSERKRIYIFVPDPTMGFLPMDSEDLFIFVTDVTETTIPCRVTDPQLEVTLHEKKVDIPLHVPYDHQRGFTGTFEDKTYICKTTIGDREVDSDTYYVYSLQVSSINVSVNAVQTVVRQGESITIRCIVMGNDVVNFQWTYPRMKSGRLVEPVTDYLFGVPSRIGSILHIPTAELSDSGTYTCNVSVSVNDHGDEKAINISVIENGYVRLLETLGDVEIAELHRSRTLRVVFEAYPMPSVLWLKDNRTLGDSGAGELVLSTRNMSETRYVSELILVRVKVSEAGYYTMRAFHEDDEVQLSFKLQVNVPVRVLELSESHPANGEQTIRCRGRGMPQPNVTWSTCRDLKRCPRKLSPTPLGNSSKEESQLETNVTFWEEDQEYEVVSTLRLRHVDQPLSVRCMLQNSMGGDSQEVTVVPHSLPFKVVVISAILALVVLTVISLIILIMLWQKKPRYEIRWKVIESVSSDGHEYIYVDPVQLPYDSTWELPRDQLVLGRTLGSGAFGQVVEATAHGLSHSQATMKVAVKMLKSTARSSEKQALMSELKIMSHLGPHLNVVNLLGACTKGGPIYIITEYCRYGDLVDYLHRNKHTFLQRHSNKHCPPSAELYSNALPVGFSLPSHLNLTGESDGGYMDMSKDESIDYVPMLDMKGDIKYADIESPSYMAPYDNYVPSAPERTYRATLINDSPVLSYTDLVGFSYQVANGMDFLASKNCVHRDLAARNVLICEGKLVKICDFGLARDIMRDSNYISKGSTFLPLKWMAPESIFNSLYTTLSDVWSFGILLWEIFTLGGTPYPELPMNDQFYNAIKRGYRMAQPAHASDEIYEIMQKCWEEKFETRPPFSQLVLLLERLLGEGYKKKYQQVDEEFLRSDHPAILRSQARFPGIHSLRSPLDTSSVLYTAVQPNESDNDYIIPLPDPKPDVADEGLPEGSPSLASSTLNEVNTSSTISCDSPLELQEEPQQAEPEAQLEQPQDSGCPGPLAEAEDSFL

Columns and labels:
[1] = target: PDGFRβ-Flag (UniProt P09619); assay: co-IP; HEK293T cells co-transfected with PDGFRβ-Flag, FGFR1-HA, EphA4-GFP and FRS2α-myc; 150 μg of lysate; IP with anti-PDGFRβ, anti-EphA4 or anti-FRS2α, immunoblot
[2] = target: EphA4-GFP (UniProt Q03137); assay: as above
[3] = target: T1, FRS2α-myc (UniProt Q8WU20); assay: as above
T1 sequence: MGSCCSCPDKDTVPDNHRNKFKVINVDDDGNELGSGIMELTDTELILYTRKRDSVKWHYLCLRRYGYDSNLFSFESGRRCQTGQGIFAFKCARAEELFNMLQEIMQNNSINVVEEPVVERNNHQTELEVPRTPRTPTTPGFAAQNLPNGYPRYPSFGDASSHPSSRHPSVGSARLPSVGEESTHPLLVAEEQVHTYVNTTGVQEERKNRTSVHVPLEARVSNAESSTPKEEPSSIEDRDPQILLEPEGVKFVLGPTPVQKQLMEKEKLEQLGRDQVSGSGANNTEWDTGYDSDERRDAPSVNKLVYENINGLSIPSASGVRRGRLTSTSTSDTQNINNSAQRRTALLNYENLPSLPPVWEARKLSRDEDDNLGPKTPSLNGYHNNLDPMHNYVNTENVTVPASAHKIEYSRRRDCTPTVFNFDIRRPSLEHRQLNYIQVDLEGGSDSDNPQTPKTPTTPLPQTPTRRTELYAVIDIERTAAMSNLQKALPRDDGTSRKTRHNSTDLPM

[4] = target: platelet-derived growth factor receptor β (PDGFRβ), endogenous in mouse embryonic neural progenitor cells (mouse (endogenous in embryonic NPCs)) (UniProt P05622); assay: co-IP; lysates of mouse embryonic NPCs without PDGF-BB stimulation; IP with anti-EphA4 or anti-PDGFRβ on protein A agarose, immunoblot
[5] = target: platelet-derived growth factor receptor β (PDGFRβ), endogenous in mouse embryonic neural progenitor cells (mouse (endogenous in embryonic NPCs)) (UniProt P05622); assay: co-IP; lysates of mouse embryonic NPCs starved 5 h and stimulated with PDGF-BB (20 ng/ml; 15 min, the peak of ligand stimulation); control cells or cells transduced with the dominant-negative EphA4 retrovirus; IP with anti-EphA4 or anti-PDGFRβ on protein A agarose, immunoblot
[6] = target: ephrin receptor A4 (EphA4), endogenous in mouse embryonic neural progenitor cells (mouse (endogenous in embryonic NPCs)) (UniProt Q03137); assay: as above

Row | binding [1] | binding [2] | Substance | also measured
1 | binds | – | EphA4-GFP (from UniProt Q03137 20-986) (receptor) | –
2 | binds | binds | FGFR1-HA (from UniProt P11362 22-822) (receptor) | binding [3]: binds
3 | – | binds | PDGFRβ-Flag (from UniProt P09619 33-1106) (receptor) | –
4 | – | – | ephrin receptor A4 (EphA4), endogenous in mouse embryonic neural progenitor cells (from UniProt Q03137 20-986) | binding [4]: binds weakly; binding [5]: binds
5 | – | – | platelet-derived growth factor receptor β (PDGFRβ), endogenous in mouse embryonic neural progenitor cells (from UniProt P05622 32-1098) | binding [6]: binds
